Data: the supplement of paper PMC8728848
The list shows a part of the results.

Key:
Test in all cases: glycan array binding signal (z-score within array); higher = stronger binding
Settings in all cases: glycan notation: IUPAC condensed, linker removed
[1] = biological target: Neu5Ac(a2-3)Gal(b1-4)GlcNAc(b1-6)GalNAc
In short: (§1)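 Glycan array data came from 3228 arrays in the Consortium for Functional Glycomics database, and only arrays with an available protein sequence were kept. Glycan names were put into IUPAC-condensed notation, and columns mapping to the same glycan were averaged. The binding signal is a within-array Z-score, averaged across arrays of one protein sequence run at different concentrations or buffers and across linkers. A negative Z-score can be read as non-binding.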

[2] = biological target: Neu5Ac(a2-3)Gal(b1-4)GlcNAc(b1-6)[Gal(b1-3)]GalNAc
In short: as §1

[3] = biological target: Neu5Ac(a2-3)Gal(b1-4)GlcNAc(b1-6)[Neu5Ac(a2-3)Gal(b1-3)]GalNAc
In short: as §1

[4] = biological target: Neu5Ac(a2-3)Gal(b1-4)GlcNAc6S
In short: as §1

[5] = biological target: Neu5Ac(a2-3)Gal(b1-4)[Fuc(a1-3)]GlcNAc
In short: as §1

[6] = biological target: Neu5Ac(a2-3)Gal(b1-4)[Fuc(a1-3)]GlcNAc(b1-2)Man
In short: as §1

[7] = biological target: Neu5Ac(a2-3)Gal(b1-4)[Fuc(a1-3)]GlcNAc(b1-3)Gal
In short: as §1

[8] = biological target: Neu5Ac(a2-3)Gal(b1-4)[Fuc(a1-3)]GlcNAc(b1-3)Gal(b1-4)GlcNAc
In short: as §1

[9] = biological target: Neu5Ac(a2-3)Gal(b1-4)[Fuc(a1-3)]GlcNAc(b1-3)Gal(b1-4)[Fuc(a1-3)]GlcNAc(b1-3)Gal(b1-4)[Fuc(a1-3)]GlcNAc
In short: as §1

[10] = biological target: Neu5Ac(a2-3)Gal(b1-4)[Fuc(a1-3)]GlcNAc(b1-3)GalNAc
In short: as §1

[11] = biological target: Neu5Ac(a2-3)Gal(b1-4)[Fuc(a1-3)]GlcNAc(b1-6)[Gal(b1-3)]GalNAc
In short: as §1

[12] = biological target: Neu5Ac(a2-3)Gal(b1-4)[Fuc(a1-3)]GlcNAc(b1-6)[Neu5Ac(a2-3)Gal(b1-3)]GalNAc
In short: as §1

[13] = biological target: Neu5Ac(a2-3)Gal(b1-4)[Fuc(a1-3)]GlcNAc6S
In short: as §1

[14] = biological target: Neu5Ac(a2-3)Gal6S(b1-4)GlcNAc
In short: as §1

[15] = biological target: Neu5Ac(a2-3)Gal6S(b1-4)[Fuc(a1-3)]GlcNAc
In short: as §1

Neu5Ac(a2-3)GalNAc = biological target: Neu5Ac(a2-3)GalNAc
In short: as §1

[16] = biological target: Neu5Ac(a2-3)GalNAc(b1-4)GlcNAc
In short: as §1

[17] = biological target: Neu5Ac(a2-3)[GalNAc(b1-4)]Gal(b1-4)Glc
In short: as §1

[18] = biological target: Neu5Ac(a2-3)[GalNAc(b1-4)]Gal(b1-4)GlcNAc
In short: as §1

[19] = biological target: Neu5Ac(a2-3)[GalNAc(b1-4)]Gal(b1-4)GlcNAc(b1-3)GalNAc
In short: as §1

[20] = biological target: Neu5Ac(a2-3)[Neu5Ac(a2-6)]GalNAc
In short: as §1

Neu5Ac(a2-6)Gal = biological target: Neu5Ac(a2-6)Gal
In short: as §1

[21] = biological target: Neu5Ac(a2-6)Gal(b1-3)GlcNAc(b1-3)[Gal(b1-4)GlcNAc(b1-6)]Gal(b1-4)Glc
In short: as §1

Neu5Ac(a2-6)Gal(b1-4)Glc = biological target: Neu5Ac(a2-6)Gal(b1-4)Glc
In short: as §1

[22] = biological target: Neu5Ac(a2-6)Gal(b1-4)GlcNAc
In short: as §1

[23] = biological target: Neu5Ac(a2-6)Gal(b1-4)GlcNAc(b1-2)Man
In short: as §1

[24] = biological target: Neu5Ac(a2-6)Gal(b1-4)GlcNAc(b1-2)Man(a1-3)Man(b1-4)GlcNAc(b1-4)GlcNAc
In short: as §1

[25] = biological target: Neu5Ac(a2-6)Gal(b1-4)GlcNAc(b1-2)Man(a1-3)[Gal(b1-4)GlcNAc(b1-2)Man(a1-6)]Man(b1-4)GlcNAc(b1-4)GlcNAc
In short: as §1

[26] = biological target: Neu5Ac(a2-6)Gal(b1-4)GlcNAc(b1-2)Man(a1-3)[GlcNAc(b1-2)Man(a1-6)]Man(b1-4)GlcNAc(b1-4)GlcNAc
In short: as §1

[27] = biological target: Neu5Ac(a2-6)Gal(b1-4)GlcNAc(b1-2)Man(a1-3)[GlcNAc(b1-4)][Neu5Ac(a2-6)Gal(b1-4)GlcNAc(b1-2)Man(a1-6)]Man(b1-4)GlcNAc(b1-4)GlcNAc
In short: as §1

[28] = biological target: Neu5Ac(a2-6)Gal(b1-4)GlcNAc(b1-2)Man(a1-3)[Man(a1-6)]Man(b1-4)GlcNAc(b1-4)GlcNAc
In short: as §1

[29] = biological target: Neu5Ac(a2-6)Gal(b1-4)GlcNAc(b1-2)Man(a1-3)[Neu5Ac(a2-3)Gal(b1-4)GlcNAc(b1-2)Man(a1-6)]Man(b1-4)GlcNAc(b1-4)GlcNAc
In short: as §1

[30] = biological target: Neu5Ac(a2-6)Gal(b1-4)GlcNAc(b1-2)Man(a1-3)[Neu5Ac(a2-6)Gal(b1-4)GlcNAc(b1-2)Man(a1-6)]Man(b1-4)GlcNAc(b1-4)GlcNAc
In short: as §1

[31] = biological target: Neu5Ac(a2-6)Gal(b1-4)GlcNAc(b1-2)Man(a1-3)[Neu5Ac(a2-6)Gal(b1-4)GlcNAc(b1-2)Man(a1-6)]Man(b1-4)GlcNAc(b1-4)[Fuc(a1-6)]GlcNAc
In short: as §1

[32] = biological target: Neu5Ac(a2-6)Gal(b1-4)GlcNAc(b1-2)Man(a1-6)Man(b1-4)GlcNAc(b1-4)GlcNAc
In short: as §1

[33] = biological target: Neu5Ac(a2-6)Gal(b1-4)GlcNAc(b1-2)Man(a1-6)[Gal(b1-4)GlcNAc(b1-2)Man(a1-3)]Man(b1-4)GlcNAc(b1-4)GlcNAc
In short: as §1

[34] = biological target: Neu5Ac(a2-6)Gal(b1-4)GlcNAc(b1-2)Man(a1-6)[GlcNAc(b1-2)Man(a1-3)]Man(b1-4)GlcNAc(b1-4)GlcNAc
In short: as §1

[35] = biological target: Neu5Ac(a2-6)Gal(b1-4)GlcNAc(b1-2)Man(a1-6)[Man(a1-3)]Man(b1-4)GlcNAc(b1-4)GlcNAc
In short: as §1

[36] = biological target: Neu5Ac(a2-6)Gal(b1-4)GlcNAc(b1-2)[Neu5Ac(a2-6)Gal(b1-4)GlcNAc(b1-4)]Man(a1-3)[GlcNAc(b1-4)][Neu5Ac(a2-6)Gal(b1-4)GlcNAc(b1-2)[Neu5Ac(a2-6)Gal(b1-4)GlcNAc(b1-6)]Man(a1-6)]Man(b1-4)GlcNAc(b1-4)GlcNAc
In short: as §1

[37] = biological target: Neu5Ac(a2-6)Gal(b1-4)GlcNAc(b1-2)[Neu5Ac(a2-6)Gal(b1-4)GlcNAc(b1-4)]Man(a1-3)[GlcNAc(b1-4)][Neu5Ac(a2-6)Gal(b1-4)GlcNAc(b1-4)Man(a1-6)]Man(b1-4)GlcNAc(b1-4)GlcNAc
In short: as §1

[38] = biological target: Neu5Ac(a2-6)Gal(b1-4)GlcNAc(b1-2)[Neu5Ac(a2-6)Gal(b1-4)GlcNAc(b1-6)]Man(a1-6)[Neu5Ac(a2-6)Gal(b1-4)GlcNAc(b1-2)Man(a1-3)][GlcNAc(b1-4)]Man(b1-4)GlcNAc(b1-4)GlcNAc
In short: as §1

[39] = biological target: Neu5Ac(a2-6)Gal(b1-4)GlcNAc(b1-3)Gal(b1-3)GlcNAc
In short: as §1

[40] = biological target: Neu5Ac(a2-6)Gal(b1-4)GlcNAc(b1-3)Gal(b1-4)GlcNAc
In short: as §1

[41] = biological target: Neu5Ac(a2-6)Gal(b1-4)GlcNAc(b1-3)Gal(b1-4)GlcNAc(b1-2)Man(a1-3)[Neu5Ac(a2-6)Gal(b1-4)GlcNAc(b1-3)Gal(b1-4)GlcNAc(b1-2)Man(a1-6)]GalNAc
In short: as §1

[42] = biological target: Neu5Ac(a2-6)Gal(b1-4)GlcNAc(b1-3)Gal(b1-4)GlcNAc(b1-3)Gal(b1-4)GlcNAc
In short: as §1

[43] = biological target: Neu5Ac(a2-6)Gal(b1-4)GlcNAc(b1-3)Gal(b1-4)GlcNAc(b1-3)Gal(b1-4)GlcNAc(b1-2)Man(a1-3)[Neu5Ac(a2-6)Gal(b1-4)GlcNAc(b1-3)Gal(b1-4)GlcNAc(b1-3)Gal(b1-4)GlcNAc(b1-2)Man(a1-6)]GalNAc
In short: as §1

B1: GS7807I-bvu-563-22-563 (Bacteroides vulgatus) (protein)
chain: IFSSCTDDFEKLNTSNIQVDPADLPFAAQCTEPMTYCYPPQQNMFQFWTNLTIDLYGGYFMTPNGNFTNGDMGENRGHSGGMYENYYLHIFNNTRRIIAQCDASGERGLSGVMRIVQAYGTLMTTDAYGPIPYSSILSGENEVYFEFDSQKDLYKAMLEDLSTAITDISAMGADEIAKLKSFDCWCNGDKDLWVKIANTMKLRMALRLSKRETEAGNAGMNLKAIATEAAQNTLATVNKDILIDKSLENEMWLMFNWGDCGFNANLVTIMSGTKDPRQPLYMTLNTGDIKNEAGTTTVAANSQYLGIRFASGLPAKPNSWGNFSGWIQGNNGSSYSMPLPIMKAAEAYFLLAEAKLRWDIGSESVKNLYENGIRVSMTNELAYRGAYAGIKEYPEGAVDAYINGTSTQIDYTDPIKAELSTPAVNKLSVKWDESASNEEKLERIITQKWLALFPLSTEGWAEQRRTGYPRFFPAFVNESNGAVNTEEGVRRVIYSSQAYDANAKGVEGGIKLLDEENSSKFGISGDKGGTHLWWDNADKGNF
- glycan array binding signal (z-score) [1]: -1.69
- glycan array binding signal (z-score) [2]: -1.16
- glycan array binding signal (z-score) [3]: -0.221
- glycan array binding signal (z-score) [4]: -0.432
- glycan array binding signal (z-score) [5]: -0.663
- glycan array binding signal (z-score) [6]: 0.586
- glycan array binding signal (z-score) [7]: -0.291
- glycan array binding signal (z-score) [8]: -0.977
- glycan array binding signal (z-score) [9]: -1.54
- glycan array binding signal (z-score) [10]: 5.03
- glycan array binding signal (z-score) [11]: 0.973
- glycan array binding signal (z-score) [12]: -0.487
- glycan array binding signal (z-score) [13]: -1.46
- glycan array binding signal (z-score) [14]: -1.61
- glycan array binding signal (z-score) [15]: -1.45
- glycan array binding signal (z-score) (Neu5Ac(a2-3)GalNAc): -0.657
- glycan array binding signal (z-score) [16]: -1.11
- glycan array binding signal (z-score) [17]: -1.14
- glycan array binding signal (z-score) [18]: -1.37
- glycan array binding signal (z-score) [19]: -0.207
- glycan array binding signal (z-score) [20]: 1.18
- glycan array binding signal (z-score) (Neu5Ac(a2-6)Gal): -0.538
- glycan array binding signal (z-score) [21]: -0.463
- glycan array binding signal (z-score) (Neu5Ac(a2-6)Gal(b1-4)Glc): -0.793
- glycan array binding signal (z-score) [22]: 1.17
- glycan array binding signal (z-score) [23]: 0.02
- glycan array binding signal (z-score) [24]: -0.731
- glycan array binding signal (z-score) [25]: -1.77
- glycan array binding signal (z-score) [26]: -1.35
- glycan array binding signal (z-score) [27]: 1.15
- glycan array binding signal (z-score) [28]: 0.155
- glycan array binding signal (z-score) [29]: -0.764
- glycan array binding signal (z-score) [30]: -0.162
- glycan array binding signal (z-score) [31]: 1.45
- glycan array binding signal (z-score) [32]: -0.32
- glycan array binding signal (z-score) [33]: 1.71
- glycan array binding signal (z-score) [34]: -0.815
- glycan array binding signal (z-score) [35]: -1.07
- glycan array binding signal (z-score) [36]: -1.34
- glycan array binding signal (z-score) [37]: 1.24
- glycan array binding signal (z-score) [38]: -0.415
- glycan array binding signal (z-score) [39]: -0.945
- glycan array binding signal (z-score) [40]: -0.234
- glycan array binding signal (z-score) [41]: -0.168
- glycan array binding signal (z-score) [42]: -0.509
- glycan array binding signal (z-score) [43]: 0.3
